# PubChem BioAssay AID493014 (National Center for Advancing Translational Sciences (NCATS), 2011)
# The list shows a part of the results. These are further read-outs of the screen, such as a control signal, another cell line or another target. No call is given for them. The list favours compounds with an active or inconclusive main result. Words in brackets tell the shape of the fitted curve; partial curves, single points and poor fits give uncertain potencies.
# Test: qHTS Assay to Find Inhibitors of Chronic Active B-Cell Receptor Signaling
# Details: ABC-DLBCL IkBa-CBG/CBR reporter, luminescence ratio (green luciferase fused to IkBa over red control in TMD8 lymphoma cells), 4 h
# Method in brief: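 TMD8 human ABC-DLBCL cells with doxycycline-inducible IκBα–green luciferase fusion and unfused red luciferase, in 0.5% FBS medium; compounds up to 46 uM, 4 h at 37C. Green/red luminescence ratio, filter-overlap corrected, fitted to concentration-response curves.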
# [1] = measured here: CBR red luminescence, cell number
# [2] = measured here: IkBa-CBG green luminescence
Structure (SMILES),AC50 [1],AC50 [2]
CNC(=O)c1cnn(-c2nc(-c3ccc(OC)cc3)cs2)c1C(F)(F)F,"20 µM [rising, single point]",
CCOc1ccc(C(=O)NCc2ccco2)cc1Cl,"20 µM [falling, single point]",
O=C(CS(=O)(=O)Cc1ccccc1)N1CCc2ccccc21,"9.2 µM [rising, partial curve, poor fit]",
Cc1ccsc1C(=O)NNC(=O)CCN1CCN(c2ccccc2)CC1,"29.1 µM [falling, partial curve, poor fit]",
CC(=O)n1cc(N(C(=O)CCl)c2ccc(C)cc2)c2ccccc21,"7.08 µM [falling, full curve]",
CC(C)Cc1nnc(NC(=O)CCNC(=O)c2ccccc2Cl)s1,"14.6 µM [falling, partial curve]",
O=C(Oc1ccc2cc(Br)ccc2c1)N1CCCCCC1,"0.58 µM [rising, partial curve, poor fit]",
N/C(=N\OC(=O)N1c2ccccc2Sc2ccccc21)c1ccc(Br)cc1,"7.31 µM [falling, partial curve]",
CCN(CC)c1ccc2c(c1)CCCN2,"18.4 µM [rising, single point]",
COc1c(Cl)cc(C(=O)NN)cc1Cl,"2.82 µM [rising, full curve]","2 µM [falling, full curve]"
CCOC(=O)C1CCN(C(=O)Cc2c(C(=O)O)n(CC)c3ccccc23)CC1,"0.00366 µM [rising, full curve, poor fit]",
Cc1ccccc1Cn1nnc(C(=O)Nc2cccc(C)c2C)c1N,"15.8 µM [falling, single point]",
Cc1ccc(C(=O)Nc2ccccc2C(=O)NCC2CCCO2)cc1 (configuration not stated),"25.1 µM [falling, single point]",
CC(=O)NC(NC(=S)Nc1ccc(N=Nc2ccccc2C)cc1C)C(Cl)(Cl)Cl (configuration not stated),"20 µM [falling, partial curve, poor fit]",
O=c1c2c([N+](=O)[O-])cc([N+](=O)[O-])cc2sn1-c1ccc(Br)cc1,"16.4 µM [falling, single point]",
CCCSc1nnc(NC(=O)Nc2ccc(F)cc2)s1,"0.651 µM [rising, full curve, poor fit]",
COc1ccc(-c2nc(SC)n(C(=O)c3ccco3)n2)cc1,"0.103 µM [rising, full curve, poor fit]",
CCOC(=O)c1nn(-c2ccc3c(c2)OCCO3)cc1O,"28.2 µM [falling, single point]",
Cn1ncc(Cl)c1C(=O)Nc1nc2ccc(Cl)cc2s1,"5.8 µM [falling, full curve]",
CC(C)[C@H](NC(=O)c1ccccc1)C(=O)OCC(=O)NCc1ccc(F)cc1,"25.1 µM [rising, single point]",
Nc1ncc(CN2CCCC(C(=O)Nc3ccc(-c4ccco4)cc3)C2)cn1 (configuration not stated),"15.8 µM [falling, single point]",
O=C(CO/N=C/c1ccc(OC(F)F)cc1)NCc1ccc(F)cc1,"5.01 µM [falling, partial curve, poor fit]",

# Five entries already listed, sorted by heavy-atom count, smallest number first.
Structure (SMILES),AC50 [1],AC50 [2]
Cn1ncc(Cl)c1C(=O)Nc1nc2ccc(Cl)cc2s1,"5.8 µM [falling, full curve]",
CC(=O)n1cc(N(C(=O)CCl)c2ccc(C)cc2)c2ccccc21,"7.08 µM [falling, full curve]",
CNC(=O)c1cnn(-c2nc(-c3ccc(OC)cc3)cs2)c1C(F)(F)F,"20 µM [rising, single point]",
N/C(=N\OC(=O)N1c2ccccc2Sc2ccccc21)c1ccc(Br)cc1,"7.31 µM [falling, partial curve]",
CCOC(=O)C1CCN(C(=O)Cc2c(C(=O)O)n(CC)c3ccccc23)CC1,"0.00366 µM [rising, full curve, poor fit]",

# Later entries.

Structure (SMILES),AC50 [1],AC50 [2]
CCC(=O)Nc1c(-c2ccccc2Cl)c(=O)c2ccccc2n1CC,"6.31 µM [rising, single point]",
CCC(C)[C@H](NC(=O)N1CC(=O)Nc2ccccc21)C(=O)N[C@H](Cc1c[nH]c2ccccc12)C(=O)O (some centres not stated),"3.55 µM [falling, single point]",
CCOC(=O)C1=CN(Cc2cccc(I)c2)S(=O)(=O)N(C)C1C (configuration not stated),"29.1 µM [falling, single point]",
CC(C)c1ccc(NC(=O)c2ccc(=O)n(Cc3ccccc3)c2)cc1,"5.62 µM [rising, single point]",
CN(CCC#N)C(=O)c1cc2c(s1)-c1ccccc1SC2,"3.55 µM [rising, single point]",
COCCCNCCOc1ccc(C(C)(C)c2ccccc2)cc1,"20.6 µM [falling, single point]",
COC(=O)Oc1ccc(/C=N/NC(=O)CN(c2ccccc2Cl)S(C)(=O)=O)cc1OC,"3.66 µM [falling, partial curve, poor fit]",
Cc1ccc(C)c(N2CCN(S(=O)(=O)c3ccc(-c4cc(C)no4)s3)CC2)c1,"0.398 µM [falling, partial curve, poor fit]",
Cc1cccn2cc(CNC(=O)CC3CCCC3)nc12,"18.4 µM [rising, partial curve, poor fit]",
COc1ccc(S(=O)(=O)NC2CC2)cc1Br,"35.5 µM [rising, single point]",
CC(C)c1cc(=O)n2[nH]c(SCc3ccccc3)nc2n1,"10 µM [falling, partial curve]",
O=C(OCCc1ccccc1)c1cc(O)c(O)c(O)c1,"0.092 µM [rising, full curve, poor fit]",
COC(=O)c1c(-c2ccc(OC)cc2)sc2ccc(OC)cc12,"25.9 µM [rising, partial curve, poor fit]",
CCCSc1nnc(NC(=O)c2ccco2)s1,"7.94 µM [falling, partial curve]",
O=c1cc(/C=C/c2cccs2)[nH]c2ccccc12,"2.06 µM [falling, full curve, poor fit]",
COc1ccc(/C=C/C(=O)Nc2ccc(-n3nncc3-c3ccccc3)cc2)cc1OC,"11.6 µM [falling, single point]",
S=C1NC2(CCCCC2)NN1c1ccccc1,"35.5 µM [rising, single point]",
CCc1ccc(CCC(=O)Nc2ccc(C)c(C)c2)o1,"0.82 µM [falling, partial curve, poor fit]",
COc1cn(-c2ccccc2)nc1C(=O)OCC(=O)Nc1ccc(C)c(C)c1,"25.9 µM [rising, partial curve, poor fit]",
CCOC(=O)c1sc(C)c2c1NC1(CCCCC1)NC2=O,"35.5 µM [falling, single point]",
CCCCCSc1nnc2c(n1)OC(c1cccn1C)N(C(C)=O)c1ccccc1-2 (configuration not stated),"10 µM [falling, partial curve]",
O=C(Nc1cc(S(=O)(=O)N2CCOCC2)ccc1N1CCOCC1)c1ccccc1Cl,"23.1 µM [rising, single point]",

Structure (SMILES),AC50 [1],AC50 [2]
COc1cccc(OC)c1C(=O)OCC(=O)Nc1ccc(OC(F)(F)F)cc1,"14.6 µM [falling, partial curve, poor fit]",
Cc1cc(NC(c2ccc(Cl)cc2)c2ccc3cccnc3c2O)no1 (configuration not stated),"1.64 µM [falling, partial curve, poor fit]",
Cc1nc(-c2ccc(C(=O)Nc3ccc(F)cc3)cc2)cs1,"3.16 µM [falling, partial curve, poor fit]",
COn1c(=S)[nH]c2ccccc2c1=O,"3.16 µM [rising, partial curve, poor fit]",
NS(=O)(=O)c1cccc(NC(=O)CSc2nnc(-c3ccccc3)o2)c1,"7.31 µM [falling, partial curve]",
CNCC(=O)Nc1ccc(Cl)c(C(F)(F)F)c1,"1.78 µM [rising, partial curve, poor fit]",
CCOC(=O)[C@H]1[C@H]2COc3ccc(C)cc3[C@@H]2N2C(=O)c3ccc(F)cc3NC(=O)[C@@]12C,"5.8 µM [falling, single point]",
CC1=C(C(=O)OC2CCCCC2)C(c2cccc([N+](=O)[O-])c2)NC(=O)N1 (configuration not stated),"35.5 µM [falling, single point]",
O=C1c2cccc(OCC(=O)N3N=C(c4cccs4)CC3c3ccc(F)cc3)c2CCN1Cc1cccnc1 (configuration not stated),"16.4 µM [falling, partial curve, poor fit]",
O=C(N/N=C/c1ccccc1Cl)c1[nH]c2ccc(Br)cc2c1-c1ccccc1,"1.3 µM [rising, full curve]","1.64 µM [falling, full curve]"
O=C(Nc1nc2ccc([N+](=O)[O-])cc2s1)c1c(F)cccc1F,"5.62 µM [falling, partial curve, poor fit]",
O=C(Nc1ccc(Cl)cc1F)C1CCN(S(=O)(=O)c2cccc3nonc23)CC1,"6.31 µM [falling, single point]",
Cn1c(=O)c2nnn(/N=C(\c3ccccc3)C3CC3)c2n(C)c1=O,"22.4 µM [falling, single point]",
N/C(=N\OC(=O)c1ccc2c(c1)OCO2)c1cccc(Br)c1,"5.62 µM [rising, single point]",
N#Cc1cccc(NC(=O)Nc2cccs2)c1,"5.01 µM [rising, partial curve, poor fit]",
O=C(COc1ccc(Cl)cc1)N1CCCC1,"1.16 µM [falling, full curve]",
O=C(Cc1cccc(NC(=O)C2CCCN(C(=O)CCc3ccccc3)C2)c1)Nc1cccc(C(=O)N2CCCC2)c1 (configuration not stated),"20.6 µM [falling, single point]",
CC(C)(C)c1cc[n+](C2=C([O-])c3ccccc3C(=O)/C2=N\S(=O)(=O)c2cccs2)cc1,"7.94 µM [falling, partial curve, poor fit]","8.91 µM [rising, partial curve, poor fit]"
O=[N+]([O-])c1ccc(-c2cnc(SCc3ccccc3Cl)[nH]2)cc1,"10 µM [falling, partial curve]",
O=C(NCc1ccco1)c1cc2cc(Br)ccc2o1,"11.2 µM [falling, partial curve, poor fit]",
